# Measurements reported in the supplement of paper PMC12823440, “Inhibitors supercharge kinase turnover through native proteolytic circuits” (Nature, 2025).
# Protein sequences, listed by entry. Tags and fused reporters are not part of them. Lines headed by an entry give the natural chain unless they say otherwise; changes in a name come on top.
# UniProt P23458: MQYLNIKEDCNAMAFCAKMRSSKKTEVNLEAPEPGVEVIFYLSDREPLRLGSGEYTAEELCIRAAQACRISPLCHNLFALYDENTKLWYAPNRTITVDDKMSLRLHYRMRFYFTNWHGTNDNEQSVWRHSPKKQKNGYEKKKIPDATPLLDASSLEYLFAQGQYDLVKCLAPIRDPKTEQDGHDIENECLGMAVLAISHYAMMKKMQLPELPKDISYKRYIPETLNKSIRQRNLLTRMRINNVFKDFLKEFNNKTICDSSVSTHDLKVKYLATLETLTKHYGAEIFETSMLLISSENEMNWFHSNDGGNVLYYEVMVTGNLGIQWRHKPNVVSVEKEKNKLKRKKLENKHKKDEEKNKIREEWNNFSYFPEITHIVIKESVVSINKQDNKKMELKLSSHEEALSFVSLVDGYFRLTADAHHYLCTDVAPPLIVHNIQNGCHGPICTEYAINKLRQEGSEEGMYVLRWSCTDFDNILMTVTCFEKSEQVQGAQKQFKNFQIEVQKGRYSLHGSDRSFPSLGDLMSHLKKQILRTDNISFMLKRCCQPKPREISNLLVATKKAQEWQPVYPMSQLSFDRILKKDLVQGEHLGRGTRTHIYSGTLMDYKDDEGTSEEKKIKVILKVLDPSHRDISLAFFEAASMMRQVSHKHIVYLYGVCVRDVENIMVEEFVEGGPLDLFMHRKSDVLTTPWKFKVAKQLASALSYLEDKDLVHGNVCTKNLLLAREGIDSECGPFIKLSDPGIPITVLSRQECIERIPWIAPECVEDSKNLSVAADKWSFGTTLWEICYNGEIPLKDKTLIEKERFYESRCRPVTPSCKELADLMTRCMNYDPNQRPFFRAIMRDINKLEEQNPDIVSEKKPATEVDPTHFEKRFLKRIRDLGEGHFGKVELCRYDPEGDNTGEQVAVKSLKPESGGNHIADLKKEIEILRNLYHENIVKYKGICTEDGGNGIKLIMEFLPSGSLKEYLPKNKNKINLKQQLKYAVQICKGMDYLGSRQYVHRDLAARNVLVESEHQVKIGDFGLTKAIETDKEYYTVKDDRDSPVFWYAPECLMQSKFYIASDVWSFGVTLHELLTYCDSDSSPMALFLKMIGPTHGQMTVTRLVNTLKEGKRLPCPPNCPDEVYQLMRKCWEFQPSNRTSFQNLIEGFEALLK
# UniProt P06239: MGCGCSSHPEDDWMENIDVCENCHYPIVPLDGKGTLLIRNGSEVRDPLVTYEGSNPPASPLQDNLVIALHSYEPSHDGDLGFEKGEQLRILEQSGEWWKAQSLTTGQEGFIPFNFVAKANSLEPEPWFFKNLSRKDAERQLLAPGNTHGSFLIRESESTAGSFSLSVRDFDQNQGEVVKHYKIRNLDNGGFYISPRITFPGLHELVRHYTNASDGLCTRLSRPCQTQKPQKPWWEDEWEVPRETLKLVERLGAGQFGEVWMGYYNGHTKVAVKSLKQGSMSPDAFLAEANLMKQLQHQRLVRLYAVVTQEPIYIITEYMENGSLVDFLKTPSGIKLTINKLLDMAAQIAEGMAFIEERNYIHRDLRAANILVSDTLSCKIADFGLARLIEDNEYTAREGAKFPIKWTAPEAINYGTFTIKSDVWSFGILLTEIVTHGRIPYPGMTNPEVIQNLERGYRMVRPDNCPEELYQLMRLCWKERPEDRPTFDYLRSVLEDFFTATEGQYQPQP
# Counter-ions that a name gives are not always drawn. Some of the results follow. Hit calls seldom repeat between salt and free forms of one compound.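 Kinases were expressed as nanoluciferase fusions in K562 cells and luminescence was read every 4 h between 2 and 18 h as percent of control, DMSO set to 100% and a positive control to 0%. A time point counts as decreased when the signal drops significantly (2 sigma). The hit call is the authors' own, does not follow from the count of time points alone, and its rule is not shown.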
# Molecular target: JAK1 (UniProt P23458)
# Experiment: number of time points (of 5) at which kinase-Nluc abundance scored as decreased, DMSO-normalised (count); higher = more persistent destabilization
# Settings: K562; 2-18 h
row,Structure (SMILES),number of time points
1,Fc1c(Br)cccc1Nc1ncnc2cc3c(cc12)OCCO3 (2.5 µM),0
2,CN(C)c1ncnc2nc[nH]c12 [6-(Dimethylamino)purine] (10 µM),0
3,CN(C)Cc1cccc(N=C(c2ccccc2)c2c(O)[nH]c3cc(C(=O)N(C)C)ccc23)c1 (10 µM),0
4,Cn1cc(-c2ccc3nnc(C(F)(F)c4ccc5ncccc5c4)n3n2)cn1 (10 µM),0

# Molecular target: LCK (UniProt P06239)
# Experiment: as above
# Settings: K562; 2-18 h
row,Structure (SMILES),number of time points
1,CC(C)c1ccc(CC(=O)N2CCN(c3ccc(C#N)nn3)CC2)cc1 (10 µM),0
2,C=CC(=O)N1CCC[C@@H](n2nc(C(=O)Nc3ccc(CC(=O)N(C)C)c(C)c3C)c3c(N)ncnc32)C1 (10 µM),0
3,O=C(O)CCc1ccc(NCc2cccc(Oc3ccccc3)c2)cc1 (10 µM),0
4,CCc1c(C)sc(NC(=S)NC(=O)c2ccc(Cl)cc2)c1C(N)=O (10 µM),0
5,C=CC(=O)Nc1cccc(-n2c(=O)cc(C)c3cnc(Nc4ccc(OCCN(C)C)cc4OC)nc32)c1 (10 µM),0
6,C=C(F)C(=O)N1CCN(c2nc(OC[C@@H]3CCCN3C)nc3c2CCN(c2cccc4cccc(Cl)c24)C3)C[C@@H]1CC#N (2.5 µM),0
7,COc1ncc(Nc2ncc([C@@H](C)N3CCN(S(C)(=O)=O)CC3)cc2-c2nc(C)nc(N)n2)cc1F (10 µM),0
8,COc1ccc2c(c1OC)OC1c3ccc(O)cc3OCC21 (configuration not stated) [Methylnissolin] (10 µM),0
9,O=C(CO)N1CCC(c2n[nH]c(-c3ccc(Cl)cc3)c2-c2ccncn2)CC1 (10 µM),0
10,O=C1NC(=O)/C(=C/c2ccc(-c3ccc(F)cc3O)o2)S1 (10 µM),0
11,Cc1cc(C(C)Nc2ccccc2)c2nc(N3CCOCC3)cc(=O)n2c1 (configuration not stated) (10 µM),0
12,Cc1cccc(-c2[nH]ncc2-c2ccc3ncccc3n2)n1 (10 µM),0
13,Cc1cc2ncc(-c3ccccc3)nc2cc1C (10 µM),0
14,COc1cc(C(=O)N2CCC(N3CCN(C)CC3)CC2)ccc1Nc1ncc2c(n1)N(C)c1ccccc1C(=O)N2C (10 µM),0
15,COc1cnccc1Nc1nc(-c2nn(Cc3c(F)cc(OCCO)cc3F)c3ccccc23)ncc1OC (10 µM),0
16,C[C@@H]1COCCN1c1cc(C2([S@](C)(=N)=O)CC2)nc(-c2cc[nH]c3nccc2-3)n1 [Ceralasertib] (2.5 µM),0
17,"CC(C)C[C@H](NC(=O)[C@H](CCCCN)NC(=O)[C@H](CO)NC(=O)[C@@H](N)CC(C)C)C(N)=O [LSKL, Inhibitor of Thrombospondin (TSP-1) (TFA)] (10 µM)",0
18,Cn1cc(-c2cc3c(N4CCN(c5ncc([C@@](C)(N)c6ccc(F)cc6)cn5)CC4)ncnn3c2)cn1 [Avapritinib] (2.5 µM),0
19,CC(C)(C)C(=O)N1N=CC[C@H]1c1ccccc1 (10 µM),0

row,Structure (SMILES),number of time points
1,N#Cc1ccc(-c2c(-c3ncn[nH]3)sc(N3CCOCC3)c2C#N)c(F)c1 (10 µM),0
2,O=[N+]([O-])c1ccc(Sc2cccc[n+]2[O-])c2nonc12 (2.5 µM),0
3,Nc1nc2cc(-c3ccc4ncc(C(=O)N5CCOCC5)n4c3)ccc2o1 [Serabelisib] (10 µM),0
4,NCCCCCCNS(=O)(=O)c1cccc2c(Cl)cccc12 [W-7 (hydrochloride)] (10 µM),0
5,COc1ccc(CCNc2ncc3c(=O)n(-c4cccc(F)c4)c(=O)[nH]c3n2)cc1OC (2 µM),0
6,CCc1ccc(C(=O)COc2ccc(CC3SC(=O)NC3=O)cc2)nc1 (configuration not stated) (10 µM),0
7,Nc1cc(C(F)F)c(-c2nc(N3C4CCC3COC4)nc(N3C4CCC3COC4)n2)cn1 (2.5 µM),0
8,CC(C)(C)c1cc(C(c2cc3c(cc2O)OCO3)N2CCOCC2)cc(C(C)(C)C)c1O (configuration not stated) (2.5 µM),0
9,N#C/C(=C(/N)Sc1ccc(N)cc1)c1ccccc1C(F)(F)F (10 µM),0
10,CC(C)c1cnn2c(NCc3ccccc3-n3cccn3)nc(OC3CCCNC3)nc12 (configuration not stated) (2.5 µM),0
11,COc1cc(C(C)=O)cc(OC)c1O [Acetosyringone] (10 µM),0
12,O=S(=O)(c1cccc2cnccc12)N1CCNCC1 (10 µM),0
13,CN1C(=O)NC(Cc2c[nH]c3c(Cl)cccc23)C1=O (racemic) [Necrostatin 2 (racemate)] (10 µM),0
14,COc1ccc2c(c1)c(C1=C(c3c[nH]c4ccccc34)C(=O)NC1=O)cn2CCCN(C)C (10 µM),0
15,COc1cc(-c2cc(-c3cc(OC)c(OC)c(OC)c3)cc(C(F)P(=O)(OCOC(=O)C(C)(C)C)OCOC(=O)C(C)(C)C)c2)cc(OC)c1OC (configuration not stated) [Stafia-1-dipivaloyloxymethyl ester] (2.5 µM),0
16,Fc1c(Br)cccc1Nc1ncnc2cc3c(cc12)OCCO3 (2.5 µM),0
17,CN(C)c1ncnc2nc[nH]c12 [6-(Dimethylamino)purine] (10 µM),0
18,CN(C)Cc1cccc(N=C(c2ccccc2)c2c(O)[nH]c3cc(C(=O)N(C)C)ccc23)c1 (10 µM),0
19,Cn1cc(-c2ccc3nnc(C(F)(F)c4ccc5ncccc5c4)n3n2)cn1 (10 µM),0
